Consider eight molecules from PMC4764899.

Sequences of proteins named here, by UniProt entry; tags and fusion partners are left off. Residues count along the entry.
UniProt P61289: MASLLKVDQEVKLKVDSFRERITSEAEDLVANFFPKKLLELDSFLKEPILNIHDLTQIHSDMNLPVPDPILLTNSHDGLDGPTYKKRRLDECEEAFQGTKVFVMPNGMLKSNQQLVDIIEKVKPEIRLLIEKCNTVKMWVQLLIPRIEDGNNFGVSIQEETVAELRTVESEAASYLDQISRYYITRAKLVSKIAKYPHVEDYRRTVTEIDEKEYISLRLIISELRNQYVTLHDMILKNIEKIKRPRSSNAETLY
UniProt P25963: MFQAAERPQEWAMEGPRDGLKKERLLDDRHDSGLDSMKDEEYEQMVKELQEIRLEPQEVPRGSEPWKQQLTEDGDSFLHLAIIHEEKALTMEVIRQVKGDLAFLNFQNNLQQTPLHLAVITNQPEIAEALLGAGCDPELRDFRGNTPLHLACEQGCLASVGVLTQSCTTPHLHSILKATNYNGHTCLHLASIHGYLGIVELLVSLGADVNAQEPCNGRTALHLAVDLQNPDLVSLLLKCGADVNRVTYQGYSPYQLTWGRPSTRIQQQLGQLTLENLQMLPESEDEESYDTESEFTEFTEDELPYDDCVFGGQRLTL
UniProt P19838, residues 1-433: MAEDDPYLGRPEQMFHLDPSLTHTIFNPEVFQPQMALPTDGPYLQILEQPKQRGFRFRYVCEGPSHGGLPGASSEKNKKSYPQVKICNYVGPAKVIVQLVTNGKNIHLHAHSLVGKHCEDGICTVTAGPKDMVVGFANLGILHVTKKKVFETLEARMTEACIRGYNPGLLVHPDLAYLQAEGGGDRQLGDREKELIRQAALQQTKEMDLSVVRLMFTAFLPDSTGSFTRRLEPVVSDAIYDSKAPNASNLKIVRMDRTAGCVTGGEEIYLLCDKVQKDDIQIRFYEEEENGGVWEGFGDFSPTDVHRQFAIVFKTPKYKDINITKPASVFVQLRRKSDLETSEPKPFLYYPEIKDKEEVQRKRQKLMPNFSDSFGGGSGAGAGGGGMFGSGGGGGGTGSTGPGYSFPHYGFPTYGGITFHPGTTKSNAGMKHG
UniProt P25799, residues 1-431: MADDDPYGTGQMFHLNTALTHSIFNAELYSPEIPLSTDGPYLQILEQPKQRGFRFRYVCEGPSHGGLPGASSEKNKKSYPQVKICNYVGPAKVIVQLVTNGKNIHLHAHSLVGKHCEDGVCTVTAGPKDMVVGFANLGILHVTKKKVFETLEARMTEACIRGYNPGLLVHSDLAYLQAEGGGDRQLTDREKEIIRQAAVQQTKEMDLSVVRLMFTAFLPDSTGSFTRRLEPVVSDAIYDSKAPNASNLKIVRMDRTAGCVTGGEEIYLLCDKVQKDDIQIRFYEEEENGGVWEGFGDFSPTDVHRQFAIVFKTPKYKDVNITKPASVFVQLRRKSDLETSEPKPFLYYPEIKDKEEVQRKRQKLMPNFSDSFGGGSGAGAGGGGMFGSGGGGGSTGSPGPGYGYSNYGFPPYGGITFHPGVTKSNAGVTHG
UniProt P15307: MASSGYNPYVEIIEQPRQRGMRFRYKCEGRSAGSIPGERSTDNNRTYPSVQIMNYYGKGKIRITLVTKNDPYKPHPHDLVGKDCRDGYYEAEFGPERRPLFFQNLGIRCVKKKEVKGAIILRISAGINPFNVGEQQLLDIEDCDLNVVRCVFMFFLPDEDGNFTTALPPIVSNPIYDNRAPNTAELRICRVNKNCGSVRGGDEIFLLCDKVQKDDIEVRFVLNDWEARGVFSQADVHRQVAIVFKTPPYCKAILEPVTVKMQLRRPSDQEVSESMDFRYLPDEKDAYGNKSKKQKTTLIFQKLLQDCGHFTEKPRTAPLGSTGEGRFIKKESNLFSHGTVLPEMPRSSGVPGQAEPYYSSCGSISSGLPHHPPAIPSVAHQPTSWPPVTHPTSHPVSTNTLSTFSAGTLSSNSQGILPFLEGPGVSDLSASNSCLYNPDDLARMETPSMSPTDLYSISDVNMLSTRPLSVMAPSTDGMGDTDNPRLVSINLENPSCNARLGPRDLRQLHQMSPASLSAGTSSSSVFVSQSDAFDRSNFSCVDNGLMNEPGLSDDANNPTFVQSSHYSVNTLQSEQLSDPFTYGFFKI
UniProt Q04207: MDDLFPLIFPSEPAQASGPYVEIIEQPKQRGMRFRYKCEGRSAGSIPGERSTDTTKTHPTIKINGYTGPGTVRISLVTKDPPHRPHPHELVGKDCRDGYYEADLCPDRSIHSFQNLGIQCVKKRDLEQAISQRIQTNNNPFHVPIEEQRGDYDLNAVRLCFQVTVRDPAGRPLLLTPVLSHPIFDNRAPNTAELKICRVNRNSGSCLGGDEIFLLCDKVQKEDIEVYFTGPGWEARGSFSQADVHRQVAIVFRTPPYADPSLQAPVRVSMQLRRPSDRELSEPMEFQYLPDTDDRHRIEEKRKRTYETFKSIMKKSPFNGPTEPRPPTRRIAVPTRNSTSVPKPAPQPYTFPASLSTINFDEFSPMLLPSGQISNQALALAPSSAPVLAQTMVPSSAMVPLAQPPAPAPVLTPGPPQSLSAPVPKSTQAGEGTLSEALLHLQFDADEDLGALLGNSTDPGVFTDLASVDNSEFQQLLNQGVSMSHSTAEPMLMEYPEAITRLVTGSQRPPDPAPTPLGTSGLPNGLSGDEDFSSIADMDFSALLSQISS
UniProt Q04206: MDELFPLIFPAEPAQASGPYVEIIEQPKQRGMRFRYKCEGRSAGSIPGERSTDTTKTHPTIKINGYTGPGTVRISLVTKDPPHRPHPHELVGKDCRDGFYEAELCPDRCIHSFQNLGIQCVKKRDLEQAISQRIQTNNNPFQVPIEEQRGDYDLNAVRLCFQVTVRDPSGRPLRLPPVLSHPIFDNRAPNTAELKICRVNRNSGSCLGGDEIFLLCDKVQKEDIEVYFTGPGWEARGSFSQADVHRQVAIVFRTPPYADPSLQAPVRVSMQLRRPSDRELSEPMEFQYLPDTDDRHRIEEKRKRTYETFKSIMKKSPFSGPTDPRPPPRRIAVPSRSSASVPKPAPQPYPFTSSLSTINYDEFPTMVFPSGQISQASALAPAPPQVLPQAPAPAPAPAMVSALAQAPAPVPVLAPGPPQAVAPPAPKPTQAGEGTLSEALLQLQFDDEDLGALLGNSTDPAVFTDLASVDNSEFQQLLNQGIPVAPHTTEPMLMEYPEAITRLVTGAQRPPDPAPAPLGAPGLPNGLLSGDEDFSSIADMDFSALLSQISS

In one assay the target is GST-REGγ (UniProt P61289). In words: pull-down; lysate of 293T cells transiently transfected with flag-IκBɛ, IκBα or IκBβ and GST-REGγ; GST-REGγ as bait; the text calls it co-immunoprecipitation.
Assay [1] addresses T1, IκBɛ (endogenous, HCT116 cells) (human (endogenous in HCT116)) (UniProt O00221).
T1 sequence: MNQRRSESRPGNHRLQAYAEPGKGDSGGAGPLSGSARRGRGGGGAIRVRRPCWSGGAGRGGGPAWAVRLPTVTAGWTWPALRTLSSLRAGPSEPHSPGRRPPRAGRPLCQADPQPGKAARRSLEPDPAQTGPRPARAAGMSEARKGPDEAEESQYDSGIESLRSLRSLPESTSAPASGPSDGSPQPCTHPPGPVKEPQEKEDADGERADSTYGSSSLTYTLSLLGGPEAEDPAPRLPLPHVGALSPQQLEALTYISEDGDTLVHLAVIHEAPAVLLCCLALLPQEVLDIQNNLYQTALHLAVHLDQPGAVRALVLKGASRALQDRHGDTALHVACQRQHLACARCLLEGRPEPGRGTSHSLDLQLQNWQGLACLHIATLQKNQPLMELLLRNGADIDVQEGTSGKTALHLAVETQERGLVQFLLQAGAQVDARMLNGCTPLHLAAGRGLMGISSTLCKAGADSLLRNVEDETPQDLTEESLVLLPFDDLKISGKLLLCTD
In words: co-IP; HCT116 shN and shR (REGγ knockdown) cells; IP with an anti-IκBɛ antibody.

Assay [2] concerns the target T2, IκBɛ (endogenous, murine colon epithelial cells) (mouse (endogenous in colon epithelial cells)) (UniProt O54910).
T2 sequence: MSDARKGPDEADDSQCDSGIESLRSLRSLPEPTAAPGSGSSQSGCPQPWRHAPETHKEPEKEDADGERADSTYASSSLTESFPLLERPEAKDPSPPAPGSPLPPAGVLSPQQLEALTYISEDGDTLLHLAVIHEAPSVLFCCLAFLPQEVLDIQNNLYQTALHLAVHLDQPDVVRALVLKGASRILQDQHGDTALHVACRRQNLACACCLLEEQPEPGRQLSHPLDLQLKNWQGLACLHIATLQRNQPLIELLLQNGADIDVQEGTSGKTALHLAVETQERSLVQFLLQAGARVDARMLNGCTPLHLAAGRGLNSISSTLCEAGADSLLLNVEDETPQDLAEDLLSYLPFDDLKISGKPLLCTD
Description: co-IP; colon epithelial cells from WT and REGγ-/- mice with or without prior exposure to DSS; IP with IκBɛ antibody, immunoblot. (A western blot detects proteins with antibodies after separation by electrophoresis.)

Results are given in words; binding and its absence hold for the method and conditions named. In cells and extracts the contact can be indirect. Some results given as binding are weak or reduced against the parent protein; the word gives no strength. For some assays here: Sequences can lack the tags named with a protein.

Consider flag-IκBα (from UniProt P25963 1-317), for which the binding entry with GST-REGγ is listed as “no binding”. Consider “p50 (endogenous, HCT116 cells) (from UniProt P19838 1-433)”, for which, in assay [1], the binding result is reported as “no binding”. Turning to “p50 (endogenous, murine colon epithelial cells) (from UniProt P25799 1-431)”, the binding result in assay [2] is reported as “no binding”. Same read-out and setting: the entry for “cRel (endogenous, murine colon epithelial cells) (from UniProt P15307 1-587)” is “binds”; for “p65 (endogenous, murine colon epithelial cells) (from UniProt Q04207 1-549)” it is “binds”. For the molecule “p65 (endogenous, HCT116 cells) (from UniProt Q04206 1-551)”, the binding result in assay [1] was “binds”.

B1: flag-IκBβ (protein, UniProt Q15653 1-356)
chain: MAGVACLGKAADADEWCDSGLGSLGPDAAAPGGPGLGAELGPGLSWAPLVFGYVTEDGDTALHLAVIHQHEPFLDFLLGFSAGTEYMDLQNDLGQTALHLAAILGETSTVEKLYAAGAGLCVAERRGHTALHLACRVGAHACARALLQPRPRRPREAPDTYLAQGPDRTPDTNHTPVALYPDSDLEKEEEESEEDWKLQLEAENYEGHTPLHVAVIHKDVEMVRLLRDAGADLDKPEPTCGRSPLHLAVEAQAADVLELLLRAGANPAARMYGGRTPLGSAMLRPNPILARLLRAHGAPEPEGEDEKSGPCSSSSDSDSGDEGDEYDDIVVHSSRSQTRLPPTPASKPLPDDPRPV
For the molecule B1, the binding result with GST-REGγ is on record as “no binding”.

B2: cRel (endogenous, HCT116 cells) (protein, UniProt Q04864 1-619)
chain: MASGAYNPYIEIIEQPRQRGMRFRYKCEGRSAGSIPGEHSTDNNRTYPSIQIMNYYGKGKVRITLVTKNDPYKPHPHDLVGKDCRDGYYEAEFGQERRPLFFQNLGIRCVKKKEVKEAIITRIKAGINPFNVPEKQLNDIEDCDLNVVRLCFQVFLPDEHGNLTTALPPVVSNPIYDNRAPNTAELRICRVNKNCGSVRGGDEIFLLCDKVQKDDIEVRFVLNDWEAKGIFSQADVHRQVAIVFKTPPYCKAITEPVTVKMQLRRPSDQEVSESMDFRYLPDEKDTYGNKAKKQKTTLLFQKLCQDHVETGFRHVDQDGLELLTSGDPPTLASQSAGITVNFPERPRPGLLGSIGEGRYFKKEPNLFSHDAVVREMPTGVSSQAESYYPSPGPISSGLSHHASMAPLPSSSWSSVAHPTPRSGNTNPLSSFSTRTLPSNSQGIPPFLRIPVGNDLNASNACIYNNADDIVGMEASSMPSADLYGISDPNMLSNCSVNMMTTSSDSMGETDNPRLLSMNLENPSCNSVLDPRDLRQLHQMSSSSMSAGANSNTTVFVSQSDAFEGSDFSCADNSMINESGPSNSTNPNSHGFVQDSQYSGIGSMQNEQLSDSFPYEFFQV
As to B2, in assay [1], the binding result was “binds”.
